Measurements reported in paper doi:10.1101/376103.
Like-named read-outs stand apart in the source and are kept apart here. No constants are given. Whether binding was seen depends on the method and setting. Binding seen in cells or lysates may run through a third protein. For some assays here: Binding can be weak; no strength is given. For some assays here: Tags and fused reporters may be left off the sequences shown.

B1: Myc-GdX (protein, UniProt P11441 1-157)
chain: MQLTVKALQGRECSLQVPEDELVSTLKQLVSEKLNVPVRQQRLLFKGKALADGKRLSDYSIGPNSKLNLVVKPLEKVLLEEGEAQRLADSPPPQVWQLISKVLARHFSAADASRVLEQLQRDYERSLSRLTLDDIERLASRFLHPEVTETMEKGFSK

How the values were obtained:
Assay in all cases: co-IP
HA-PP2A [1] = target: HA-PP2A (UniProt P67775)
HA-PP2A [2] = target: HA-PP2A (UniProt P67775); remark: listed apart in the source
Flag-tagged PP4 = target: Flag-tagged PP4
HA-PP2A [3] = target: HA-PP2A (UniProt P67775); remark: listed apart in the source
HA-tagged PP1 = target: HA-tagged PP1

binding (HA-PP2A [1])	binding (HA-PP2A [2])	binding (Flag-tagged PP4)	binding (HA-PP2A [3])	binding (HA-tagged PP1)	Molecule
binds	binds	–	–	–	Flag-p65 (from UniProt Q04206 1-551)
–	–	no binding	no binding	no binding	B1
